Assay results as given in the supplement of paper PMC12067093, “Discovery and optimisation of a covalent ligand for TRIM25 and its application to targeted protein ubiquitination” (Chemical Science, 2025).
The other results are listed elsewhere or left out.

The chains behind the UniProt entries cited, without tags or fusion partners. Where a name states a change or a piece, a line headed by the entry shows the natural chain unless it says otherwise.
UniProt Q14C86: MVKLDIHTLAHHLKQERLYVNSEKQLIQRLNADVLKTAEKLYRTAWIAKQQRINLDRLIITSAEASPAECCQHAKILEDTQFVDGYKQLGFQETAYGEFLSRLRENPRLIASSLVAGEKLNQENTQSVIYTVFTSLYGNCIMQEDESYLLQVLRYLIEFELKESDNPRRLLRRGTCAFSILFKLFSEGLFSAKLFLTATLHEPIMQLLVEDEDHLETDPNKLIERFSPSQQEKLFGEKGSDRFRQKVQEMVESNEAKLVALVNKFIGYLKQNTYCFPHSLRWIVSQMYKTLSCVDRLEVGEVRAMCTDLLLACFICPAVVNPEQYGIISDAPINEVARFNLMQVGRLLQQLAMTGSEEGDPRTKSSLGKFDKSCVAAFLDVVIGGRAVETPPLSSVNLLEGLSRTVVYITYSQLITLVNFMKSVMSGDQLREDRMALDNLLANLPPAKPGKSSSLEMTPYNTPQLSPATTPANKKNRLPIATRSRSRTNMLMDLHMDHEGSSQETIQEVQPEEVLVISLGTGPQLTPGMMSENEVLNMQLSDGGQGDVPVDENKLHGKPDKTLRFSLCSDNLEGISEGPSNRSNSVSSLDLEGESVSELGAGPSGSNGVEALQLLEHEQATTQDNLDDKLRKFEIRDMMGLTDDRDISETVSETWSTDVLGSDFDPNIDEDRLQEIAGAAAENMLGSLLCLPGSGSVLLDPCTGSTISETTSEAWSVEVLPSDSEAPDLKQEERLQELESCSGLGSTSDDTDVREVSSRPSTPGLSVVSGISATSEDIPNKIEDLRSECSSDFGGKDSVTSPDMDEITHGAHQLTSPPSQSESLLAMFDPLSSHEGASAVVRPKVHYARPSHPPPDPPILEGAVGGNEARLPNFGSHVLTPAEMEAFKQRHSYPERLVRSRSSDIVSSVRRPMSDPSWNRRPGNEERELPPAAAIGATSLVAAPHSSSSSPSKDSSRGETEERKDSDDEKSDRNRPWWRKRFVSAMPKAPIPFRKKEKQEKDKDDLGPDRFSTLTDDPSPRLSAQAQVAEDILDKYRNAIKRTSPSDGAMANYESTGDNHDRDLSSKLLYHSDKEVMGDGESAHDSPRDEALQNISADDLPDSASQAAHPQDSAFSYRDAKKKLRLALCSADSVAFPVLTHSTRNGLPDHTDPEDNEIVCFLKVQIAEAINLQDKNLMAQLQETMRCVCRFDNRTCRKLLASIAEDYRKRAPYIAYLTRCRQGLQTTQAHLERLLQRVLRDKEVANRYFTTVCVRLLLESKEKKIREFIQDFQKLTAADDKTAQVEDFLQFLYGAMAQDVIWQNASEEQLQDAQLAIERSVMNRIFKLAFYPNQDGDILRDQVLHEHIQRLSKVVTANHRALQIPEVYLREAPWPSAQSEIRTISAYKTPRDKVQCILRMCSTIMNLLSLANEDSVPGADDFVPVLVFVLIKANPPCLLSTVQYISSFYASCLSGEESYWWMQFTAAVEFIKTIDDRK
UniProt Q14376: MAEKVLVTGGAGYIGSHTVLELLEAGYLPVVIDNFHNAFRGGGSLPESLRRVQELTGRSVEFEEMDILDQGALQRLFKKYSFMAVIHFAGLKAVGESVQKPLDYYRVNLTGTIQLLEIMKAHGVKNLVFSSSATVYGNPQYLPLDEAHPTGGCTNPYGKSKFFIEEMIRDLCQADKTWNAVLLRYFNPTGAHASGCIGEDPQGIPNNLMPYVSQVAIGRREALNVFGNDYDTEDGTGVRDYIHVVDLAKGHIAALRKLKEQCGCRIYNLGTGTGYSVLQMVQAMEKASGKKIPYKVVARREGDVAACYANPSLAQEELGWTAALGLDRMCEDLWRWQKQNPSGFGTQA
UniProt Q8WWP7: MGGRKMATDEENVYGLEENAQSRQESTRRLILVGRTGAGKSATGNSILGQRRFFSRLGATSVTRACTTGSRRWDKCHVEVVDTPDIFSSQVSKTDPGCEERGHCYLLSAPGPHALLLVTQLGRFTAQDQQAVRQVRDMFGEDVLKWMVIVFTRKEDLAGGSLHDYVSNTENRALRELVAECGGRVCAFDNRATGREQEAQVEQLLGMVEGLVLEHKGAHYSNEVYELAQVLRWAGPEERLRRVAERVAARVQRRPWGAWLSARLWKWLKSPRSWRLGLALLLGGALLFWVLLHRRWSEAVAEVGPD
UniProt Q9Y2X7: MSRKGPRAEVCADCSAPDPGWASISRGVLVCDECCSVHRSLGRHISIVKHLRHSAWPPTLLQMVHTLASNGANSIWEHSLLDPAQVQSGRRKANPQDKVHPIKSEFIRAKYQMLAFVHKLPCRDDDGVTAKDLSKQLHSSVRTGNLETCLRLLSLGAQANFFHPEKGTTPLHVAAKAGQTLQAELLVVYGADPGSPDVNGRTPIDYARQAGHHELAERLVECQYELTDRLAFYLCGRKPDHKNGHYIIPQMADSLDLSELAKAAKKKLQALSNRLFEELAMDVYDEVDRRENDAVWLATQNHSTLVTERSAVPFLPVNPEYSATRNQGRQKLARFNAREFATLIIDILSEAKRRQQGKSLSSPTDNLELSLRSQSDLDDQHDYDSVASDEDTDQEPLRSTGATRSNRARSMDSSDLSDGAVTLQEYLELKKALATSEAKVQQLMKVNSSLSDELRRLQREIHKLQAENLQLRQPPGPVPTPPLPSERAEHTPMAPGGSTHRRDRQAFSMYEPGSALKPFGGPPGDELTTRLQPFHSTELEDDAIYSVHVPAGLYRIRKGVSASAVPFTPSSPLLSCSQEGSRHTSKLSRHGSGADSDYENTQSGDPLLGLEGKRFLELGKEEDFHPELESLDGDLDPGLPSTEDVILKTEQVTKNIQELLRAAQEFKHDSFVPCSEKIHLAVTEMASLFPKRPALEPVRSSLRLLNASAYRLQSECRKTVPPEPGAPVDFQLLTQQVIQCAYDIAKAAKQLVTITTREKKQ
UniProt Q8TEQ6: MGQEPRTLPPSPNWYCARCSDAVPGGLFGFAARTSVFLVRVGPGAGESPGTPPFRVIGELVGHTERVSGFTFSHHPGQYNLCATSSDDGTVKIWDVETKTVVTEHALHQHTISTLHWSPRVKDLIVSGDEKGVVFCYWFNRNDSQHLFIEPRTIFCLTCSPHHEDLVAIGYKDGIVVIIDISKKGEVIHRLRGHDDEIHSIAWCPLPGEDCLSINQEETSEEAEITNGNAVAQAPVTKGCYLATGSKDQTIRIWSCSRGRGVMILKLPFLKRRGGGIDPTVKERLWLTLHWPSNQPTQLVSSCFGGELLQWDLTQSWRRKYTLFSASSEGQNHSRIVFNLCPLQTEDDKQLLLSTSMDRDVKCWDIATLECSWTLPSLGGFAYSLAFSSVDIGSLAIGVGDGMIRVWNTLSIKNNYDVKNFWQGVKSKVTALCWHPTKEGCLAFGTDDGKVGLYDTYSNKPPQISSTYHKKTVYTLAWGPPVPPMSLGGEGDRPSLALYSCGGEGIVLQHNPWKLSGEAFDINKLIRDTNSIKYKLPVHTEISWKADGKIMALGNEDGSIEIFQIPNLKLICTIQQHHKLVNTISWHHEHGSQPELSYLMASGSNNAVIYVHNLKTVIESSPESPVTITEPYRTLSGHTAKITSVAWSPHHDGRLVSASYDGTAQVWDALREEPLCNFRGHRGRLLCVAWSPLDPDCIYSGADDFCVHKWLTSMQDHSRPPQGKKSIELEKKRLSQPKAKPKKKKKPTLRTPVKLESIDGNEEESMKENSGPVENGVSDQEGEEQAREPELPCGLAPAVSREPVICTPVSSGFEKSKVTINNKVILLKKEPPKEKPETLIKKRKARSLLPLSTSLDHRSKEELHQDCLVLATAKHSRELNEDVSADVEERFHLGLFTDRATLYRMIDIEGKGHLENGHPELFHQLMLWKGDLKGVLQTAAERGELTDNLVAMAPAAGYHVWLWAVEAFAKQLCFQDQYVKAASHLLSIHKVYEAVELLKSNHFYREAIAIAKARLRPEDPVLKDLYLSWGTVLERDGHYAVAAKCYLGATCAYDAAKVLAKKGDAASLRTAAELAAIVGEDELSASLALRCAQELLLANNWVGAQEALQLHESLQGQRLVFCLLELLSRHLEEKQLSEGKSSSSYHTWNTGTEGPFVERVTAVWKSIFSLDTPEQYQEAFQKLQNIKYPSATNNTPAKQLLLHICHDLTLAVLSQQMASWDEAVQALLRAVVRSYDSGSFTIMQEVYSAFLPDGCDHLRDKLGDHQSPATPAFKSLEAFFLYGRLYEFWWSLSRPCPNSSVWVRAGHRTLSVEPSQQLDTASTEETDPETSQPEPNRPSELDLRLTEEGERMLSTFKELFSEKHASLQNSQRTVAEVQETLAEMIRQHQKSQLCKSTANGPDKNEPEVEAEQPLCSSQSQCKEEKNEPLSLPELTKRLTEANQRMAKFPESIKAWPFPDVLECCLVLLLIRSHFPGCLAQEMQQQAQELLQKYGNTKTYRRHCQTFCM
UniProt Q10472: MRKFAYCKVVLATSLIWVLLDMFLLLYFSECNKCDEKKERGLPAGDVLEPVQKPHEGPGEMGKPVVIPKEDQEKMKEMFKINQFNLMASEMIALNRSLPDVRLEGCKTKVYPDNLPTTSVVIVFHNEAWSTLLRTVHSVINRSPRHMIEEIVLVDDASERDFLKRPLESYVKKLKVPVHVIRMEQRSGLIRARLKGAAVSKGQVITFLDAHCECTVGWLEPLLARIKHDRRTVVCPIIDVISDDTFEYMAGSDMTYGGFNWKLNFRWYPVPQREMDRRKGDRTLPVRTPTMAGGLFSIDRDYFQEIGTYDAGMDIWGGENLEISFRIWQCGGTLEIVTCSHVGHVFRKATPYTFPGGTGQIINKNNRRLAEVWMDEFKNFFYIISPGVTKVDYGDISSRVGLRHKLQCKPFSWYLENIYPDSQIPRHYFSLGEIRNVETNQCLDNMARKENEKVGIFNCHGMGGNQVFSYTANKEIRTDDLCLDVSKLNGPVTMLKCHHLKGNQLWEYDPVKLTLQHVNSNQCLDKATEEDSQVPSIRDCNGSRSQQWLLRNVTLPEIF
UniProt Q8TF64: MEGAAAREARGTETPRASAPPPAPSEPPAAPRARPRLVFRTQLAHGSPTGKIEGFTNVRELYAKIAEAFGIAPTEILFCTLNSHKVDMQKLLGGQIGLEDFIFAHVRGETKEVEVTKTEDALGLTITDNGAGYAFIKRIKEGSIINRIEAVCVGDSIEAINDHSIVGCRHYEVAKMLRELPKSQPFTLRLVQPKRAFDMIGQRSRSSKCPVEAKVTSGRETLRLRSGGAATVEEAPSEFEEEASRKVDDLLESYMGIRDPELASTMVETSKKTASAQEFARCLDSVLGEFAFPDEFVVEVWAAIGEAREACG
UniProt Q06210: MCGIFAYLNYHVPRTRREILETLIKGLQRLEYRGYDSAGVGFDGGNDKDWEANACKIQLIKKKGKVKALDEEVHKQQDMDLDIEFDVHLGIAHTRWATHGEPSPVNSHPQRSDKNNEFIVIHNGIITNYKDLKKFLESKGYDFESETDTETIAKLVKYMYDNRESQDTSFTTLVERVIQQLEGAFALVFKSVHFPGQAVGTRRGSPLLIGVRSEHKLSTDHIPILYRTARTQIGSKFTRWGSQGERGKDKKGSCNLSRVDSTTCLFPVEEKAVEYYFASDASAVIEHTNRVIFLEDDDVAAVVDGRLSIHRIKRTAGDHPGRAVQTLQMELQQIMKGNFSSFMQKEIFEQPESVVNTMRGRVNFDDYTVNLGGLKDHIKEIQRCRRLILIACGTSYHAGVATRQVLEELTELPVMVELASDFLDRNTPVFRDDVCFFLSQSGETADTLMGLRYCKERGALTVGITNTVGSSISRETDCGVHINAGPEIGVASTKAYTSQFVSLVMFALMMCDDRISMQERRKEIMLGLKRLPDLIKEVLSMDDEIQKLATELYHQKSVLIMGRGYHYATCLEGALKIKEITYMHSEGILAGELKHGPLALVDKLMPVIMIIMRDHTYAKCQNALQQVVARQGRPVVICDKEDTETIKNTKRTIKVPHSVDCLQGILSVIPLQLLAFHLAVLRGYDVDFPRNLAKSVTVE
UniProt Q9UJY4: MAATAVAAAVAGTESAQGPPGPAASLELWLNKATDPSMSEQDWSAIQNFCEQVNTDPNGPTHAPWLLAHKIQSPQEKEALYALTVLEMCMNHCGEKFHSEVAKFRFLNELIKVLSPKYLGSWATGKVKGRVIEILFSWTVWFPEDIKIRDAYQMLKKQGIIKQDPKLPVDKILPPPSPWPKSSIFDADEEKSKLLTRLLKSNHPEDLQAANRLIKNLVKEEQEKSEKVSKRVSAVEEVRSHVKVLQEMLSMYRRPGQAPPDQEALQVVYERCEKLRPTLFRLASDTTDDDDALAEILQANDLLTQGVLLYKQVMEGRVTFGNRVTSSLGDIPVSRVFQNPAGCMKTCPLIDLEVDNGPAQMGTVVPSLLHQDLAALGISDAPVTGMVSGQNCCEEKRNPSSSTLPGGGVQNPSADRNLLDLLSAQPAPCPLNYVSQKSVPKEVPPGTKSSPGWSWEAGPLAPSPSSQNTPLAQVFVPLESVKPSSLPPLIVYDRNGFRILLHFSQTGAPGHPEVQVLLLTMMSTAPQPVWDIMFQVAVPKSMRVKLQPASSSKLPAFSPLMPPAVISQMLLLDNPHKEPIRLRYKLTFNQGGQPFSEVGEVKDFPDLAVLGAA

Compound: CC1Cc2ccccc2N1C(=O)C1CCCN(C1)C(=O)CCl (mixture of isomers) [TRIM25 ligand 11 (diastereomer mixture)]
Test: probe-labelled cysteine peptide fold change vs DMSO (competition) (log2 fold change); higher = less target engagement (more negative = stronger competition)
Conditions: THP-1, incubation time: 4 h
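Further: competitive chemoproteomic profiling in live THP-1 cells with an iodoacetamide desthiobiotin (IA-DTB) probe, comparing probe-labelled peptide intensities in compound-treated cells against DMSO-treated controls.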

Row | Target | probe-labelled cysteine peptide fold change (10 µM) | probe-labelled cysteine peptide fold change (50 µM)
1 | GAPVD1_Q14C86_789_SECSSDFGGK (UniProt Q14C86) | 0.0422 | -0.102
2 | GATD1_Q8NB37_122_ILQHFHSESKPICAVGHGVAALCCATNEDR (UniProt Q8NB37) | -0.0391 | -0.0597
3 | GALE_Q14376_330_MCEDLWR (UniProt Q14376) | -0.0942 | 0.0819
4 | GAK_O14976_599_SGCRPFCEVYVGDER (UniProt O14976) | -0.0153 | -0.0137
5 | GDI2_P50395_202_FDLGQDVIDFTGHALALYRTDDYLDQPCYETINR (UniProt P50395) | -0.34 | -0.227
6 | GIMAP1_Q8WWP7_98_TDPGCEER (UniProt Q8WWP7) | -0.0548 | -0.0364
7 | GIT1_Q9Y2X7_222_LVECQYELTDR (UniProt Q9Y2X7) | 0.172 | 0.175
8 | GEMIN5_Q8TEQ6_82_VSGFTFSHHPGQYNLCATSSDDGTVK (UniProt Q8TEQ6) | 0.376 | 0.024
9 | GALNT1_Q10472_442_NVETNQCLDNMAR (UniProt Q10472) | 0.186 | 0.0591
10 | GAPVD1_Q14C86_70+71_LIITSAEASPAECCQHAK (UniProt Q14C86) | 0.106 | -0.203
11 | GALT_P07902_130_VMCFHPWSDVTLPLMSVPEIR (UniProt P07902) | 0.132 | -0.0683
12 | GIPC3_Q8TF64_79_IAEAFGIAPTEILFCTLNSHK (UniProt Q8TF64) | 0.0131 | -0.0214
13 | GFPT1_Q06210_392_LILIACGTSYHAGVATR (UniProt Q06210) | -0.103 | 0.193
14 | GGA2_Q9UJY4_343_VFQNPAGCMK (UniProt Q9UJY4) | -0.0198 | -0.301

Complete entries, quoted from the list:
GEMIN5_Q8TEQ6_82_VSGFTFSHHPGQYNLCATSSDDGTVK (UniProt Q8TEQ6) as listed: probe-labelled cysteine peptide fold change (10 µM): 0.376; probe-labelled cysteine peptide fold change (50 µM): 0.024
GIMAP1_Q8WWP7_98_TDPGCEER (UniProt Q8WWP7) as listed: probe-labelled cysteine peptide fold change (10 µM): -0.0548; probe-labelled cysteine peptide fold change (50 µM): -0.0364
